# Reference: the supplement of paper PMC12067093, “Discovery and optimisation of a covalent ligand for TRIM25 and its application to targeted protein ubiquitination” (Chemical Science, 2025)
# The other results are listed elsewhere or left out.
# Compound: CC1Cc2ccccc2N1C(=O)C1CCCN(C1)C(=O)CCl (mixture of isomers) [TRIM25 ligand 11 (diastereomer mixture)]
# Test: probe-labelled cysteine peptide fold change vs DMSO (competition) (log2 fold change); higher = less target engagement (more negative = stronger competition)
# Conditions: 10 µM; THP-1; incubation time: 4 h
# 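Note: competitive chemoproteomic profiling in live THP-1 cells with an iodoacetamide desthiobiotin (IA-DTB) probe, comparing probe-labelled peptide intensities in compound-treated cells against DMSO-treated controls.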
row,Target,probe-labelled cysteine peptide fold change
1,MYH9_P35579_917_QELEEICHDLEAR (UniProt P35579),0.0485
2,MYO9B_Q13459_1876_ITTCVEMLIK (UniProt Q13459),-0.198
3,MYOF_Q9NZM1_1574_GLELQPQDNNGLCDPYIK (UniProt Q9NZM1),0.231
4,NCAPH_Q15003_255+267_TAASFDECSTAGVFLSTLHCQDYR (UniProt Q15003),0.096
5,NCAPD2_Q15021_596_ESTGNMVTGQTVCK (UniProt Q15021),-0.0711
6,NAMPT_P43490_397_DLLNCSFK (UniProt P43490),0.0749
7,NAT10_Q9H0A0_255_ESLQDTQPVGVLVDCCK (UniProt Q9H0A0),-0.00171
8,NCAPH2_Q6IBW4_230_DTGRTEEQPMEVSVCR (UniProt Q6IBW4),-0.148
9,MYO1G_B0I1T2_97_SRDTCIVISGESGAGK (UniProt B0I1T2),-0.0106
10,NAA16_Q6N069_529_HFFEITDDQFDFHTYCMR (UniProt Q6N069),0.175
11,NAA50_Q9GZZ1_79_LYIMTLGCLAPYR (UniProt Q9GZZ1),-0.0571
12,NASP_P49321_254_SVSGTDVQEECR (UniProt P49321),0.024
13,NCAPD2_Q15021_1229_DLAYCVSQLPLTER (UniProt Q15021),-0.0438
14,NARS_O43776_511_KYGTCPHGGYGLGLER (UniProt O43776),-0.29
15,NCAPD3_P42695_1484_DTPACSR (UniProt P42695),-0.0902
16,NADK_O95544_69_SLHGPCPVTTFGPK (UniProt O95544),0.0566
17,NACC1_Q96RE7_464_ESEMNAIAADMCTNAR (UniProt Q96RE7),0.11
18,MYO1G_B0I1T2_618_LDENHCR (UniProt B0I1T2),0.054
19,NCBP1_Q09161_36_TSDANETEDHLESLICK (UniProt Q09161),-0.0632
20,NAT1_P18440_223+233_SFCSLQTPDGVHCLVGFTLTHR (UniProt P18440),0.00488

# Taken from above:
# In probe-labelled cysteine peptide fold change, NACC1_Q96RE7_464_ESEMNAIAADMCTNAR (UniProt Q96RE7) shows 0.11
# In probe-labelled cysteine peptide fold change, NAT1_P18440_223+233_SFCSLQTPDGVHCLVGFTLTHR (UniProt P18440) shows 0.00488

# Going on with the list:

row,Target,probe-labelled cysteine peptide fold change
1,NCAPG2_Q86XI2_826_AFGLHCR (UniProt Q86XI2),0.018
2,NAT10_Q9H0A0_746_QTPNDLTGEHSCIMLK (UniProt Q9H0A0),-0.0505
3,NAA50_Q9GZZ1_100_MLNHVLNICEK (UniProt Q9GZZ1),0.00145
4,NCAPH_Q15003_267_TAASFDECSTAGVFLSTLHCQDYR (UniProt Q15003),-0.0113
5,NCAPD3_P42695_760_ISSQQNPNSNTLGHILCVIGHIAK (UniProt P42695),-0.000379
6,NCAM2_O15394_136_QGEDAEVVCR (UniProt O15394),-0.111
7,NAA15_Q9BXJ9_214_EALEHLCTYEK (UniProt Q9BXJ9),0.152
8,NAA10_P41227_17_NARPEDLMNMQHCNLLCLPENYQMK (UniProt P41227),-0.111
9,NAA35_Q5VZE5_420_DCIDSFVTHCVRPFCSLIQIHGHNR (UniProt Q5VZE5),-0.219
10,NBAS_A2RRP1_1777_LQYYFTLLENCGCADLGNCAIKPETHIR (UniProt A2RRP1),0.0499
11,NAGA_P17050_343_ASALVFFSCR (UniProt P17050),-0.131
12,NAPRT_Q6XQN6_463_VWPPGAQEPCTVRPAQVEPLLR (UniProt Q6XQN6),-0.0107
13,MYSM1_Q5VVJ2_360_NLNDNEMLFHSCQMVEESHEEEELKPPEQEIEIDR (UniProt Q5VVJ2),-0.0444
14,MYO9A_B2RTY4_1226_ESSVDCLK (UniProt B2RTY4),-0.162
15,NAE1_Q13564_384_LLCSNSAFLR (UniProt Q13564),-0.025
16,NAA10_P41227_194_GNSPPSSGEACR (UniProt P41227),0.13
17,NCAPG_Q9BPX3_509_EALENCITLQDFNR (UniProt Q9BPX3),-0.0612
18,MYH9_P35579_896_LQLQEQLQAETELCAEAEELRAR (UniProt P35579),-0.566
19,MYO18A_Q92614_1699_NQLEESEFTCAAAVK (UniProt Q92614),-0.207
